1 sequence from publication PMC5079590 can be followed below.

Data set [1] has as its system GST-IbbHLH3 (Ipomoea batatas (sweet potato)). The data set can be described thus: EMSA. Conditions: protein titration, 50x unlabeled NWRE used as competitor (outcome only in gel); EMSA: 5X binding buffer (50 mM Tris-HCl pH 8.0, 750 mM KCl, 2.5 mM EDTA, 62.5% glycerol), 1 ug poly(dI-dC), room temperature; 6.6% native gel, 0.5X TBE; recombinant protein; protein details: N-terminal GST (pGEX4T-3). A general note: Mobility shift assays separate free from complexed probe on a gel.

The subject of data set [2] is GST-IbbHLH4 (Ipomoea batatas (sweet potato)). In words: EMSA. Conditions: protein titration; EMSA: 5X binding buffer (50 mM Tris-HCl pH 8.0, 750 mM KCl, 2.5 mM EDTA, 62.5% glycerol), 1 ug poly(dI-dC), room temperature; 6.6% native gel, 0.5X TBE; recombinant protein; protein details: N-terminal GST (pGEX4T-3).

Construct, isoform or probe ends are uncertain for at least one entry.

For “GCGTTCTTACTTTTCGTAAGGGCACGTGAAGCACCCCAACAAA (double strand) [6FAM-NWRE]”, the binding result in data set [1] and in data set [2] was “binds” each time.
